Results published in patent publication US20110142851A1.
No constants are given. Whether binding was seen depends on the method and setting. Some results given as binding are weak or reduced against the parent protein; the word gives no strength. For some assays here: Sequences can lack the tags named with a protein.

What was measured:
[1] = target: T1, recombinant human soluble IL6 receptor (human), P08887; experiment: SPR Biacore T100; conditions: remark: other sources report otherwise
T1 chain: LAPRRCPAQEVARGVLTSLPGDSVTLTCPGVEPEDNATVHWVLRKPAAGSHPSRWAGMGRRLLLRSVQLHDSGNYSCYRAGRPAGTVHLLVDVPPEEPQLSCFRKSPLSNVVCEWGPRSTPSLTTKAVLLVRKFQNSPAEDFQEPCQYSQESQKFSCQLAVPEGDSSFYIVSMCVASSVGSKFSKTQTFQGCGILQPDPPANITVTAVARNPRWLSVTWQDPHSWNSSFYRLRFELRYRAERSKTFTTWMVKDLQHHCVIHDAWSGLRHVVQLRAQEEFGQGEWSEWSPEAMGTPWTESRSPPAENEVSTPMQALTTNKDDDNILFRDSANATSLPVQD

sIL6R Fc dimer, P08887 = target: T2, sIL6R Fc dimer, P08887; experiment: SPR Biacore T100, binder captured by anti-human Fc, single 100 nM injection; conditions: remark: other sources report otherwise
T2 chain: T1 chain

- binding [1]: binds
- binding (sIL6R Fc dimer, P08887): binds
B1: TRU(XT6)-1025 (Fc fusion)
chain: LPAQVAFTPYAPEPGSTCRLREYYDQTAQMCCSKCSPGQHAKVFCTKTSDTVCDSCEDSTYTQLWNWVPECLSCGSRCSSDQVETQACTREQNRICTCRPGWYCALSKQEGCRLCAPLRKCRPGFGVARPGTETSDVVCKPCAPGTFSNTTSSTDICRPHQICNVVAIPGNASMDAVCTSTSPTRSMAPGAVHLPQPVSTRSQHTQPTPEPSTAPSTSFLLPMGPSPPAEGSTGDTGEPKSSDKTHTCPPCPAPEAAGAPSVFLFPPKPKDTLMISRTPEVTCVVVDVSHEDPEVKFNWYVDGVEVHNAKTKPREEQYNSTYRVVSVLTVLHQDWLNGKAYACAVSNKALPAPIEKTISKAKGQPREPQVYTLPPSRDELTKNQVSLTCLVKGFYPSDIAVEWESNGQPENNYKTTPPVLDSDGSFFLYSKLTVDKSRWQQGNVFSCSVMHEALHNHYTQKSLSLSPGQRHNNSSLNTRTQKARHSPNSEVQLLESGGGLVQPGGSLRLSCAASGFTFSHYGMHWVRQAPGKGLEWVSSIYPGMTQYADSVKGRFTISRDNSKNTLYLQMNSLRAEDTAVYYCARDRGSGIDAFDIWGQGTMVTVSSGGGGSGGGGSGGGGSQSELTQPPSVSVSPGQTATVSCSGEKLGDRYAWWYQQKAGQSPVLVIYQDTKRPSGVPDRFSGSNSGTSASLVISGPQSEDEADYYCAAWDDSLKGVVFGGGSKLTVL
